Values from PubChem BioAssay AID1259254 (NCATS, 2017)

Purpose: 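Gene knock-downs that lead to re-replication, shown by excess G2 DNA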 (primary screen)
Cells: human HCT116 colorectal cancer cells
Reagents: single siRNA against human genes
Time to read-out: 3 days
Measurement: 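Imaged Hoechst DNA stain sorts each cell into a cycle phase by DNA amount; per plate, G2 fraction set to 0% for non-targeting and 100% for GMNN siRNA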
Direction: G2 robust z-score: higher = more G2 cells, more excess DNA replication
Call rule: 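Active siRNAs have a G2 robust z of 5 or more median absolute deviations over the median, which in these data means about 38% or higher of GMNN control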
The deposit covers about 59,000 reagents; shown is a part drawn at random. Of all reagents, about 1,550 (2.6%) are marked active. 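G2 share is only a proxy for re-replication; each gene was hit by three separate siRNAs, and active genes were retested.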 Unmarked entries are inactive. Reagents against one gene are numbered here. Not all columns of the deposit are shown. Not stated in the record: the amount of reagent.

| gene | siRNA no. | G2 robust z-score |
| --- | --- | --- |
| DNAJC25 | 1 | 0.0456 |
| DNAJC25 | 2 | -0.0184 |
| DNAJC25 | 3 | 1.92 |
| WNK2 | 1 | -0.513 |
| WNK2 | 2 | 0.388 |
| WNK2 | 3 | 2.53 |
| RHBDL3 | 1 | -0.48 |
| RHBDL3 | 2 | 4.08 |
| RHBDL3 | 3 | 1.06 |
| CXXC1 | 1 | 0.484 |
| CXXC1 | 2 | -0.42 |
| CXXC1 | 3 | 2.55 |
| MEP1B | 1 | -0.872 |
| MEP1B | 2 | 1.42 |
| MEP1B | 3 | -0.203 |
| RTEL1 | 1 | 0.338 |
| RTEL1 | 2 | -0.867 |
| RTEL1 | 3 | -0.918 |
| AK1 | 1 | -1.61 |
| AK1 | 2 | -1.29 |
| AK1 | 3 | 0.553 |
| LMNA | 1 | 0.628 |
| LMNA | 2 | 6.06 (active) |
| LMNA | 3 | 2.25 |
| CSRP2 | 1 | 0.439 |
| CSRP2 | 2 | 1.21 |
| CSRP2 | 3 | 0.921 |
| PCDHA12 | 1 | -0.214 |
| PCDHA12 | 2 | -0.828 |
| PCDHA12 | 3 | -0.179 |

Next part; the last 3 above are carried over.
| gene | siRNA no. | G2 robust z-score |
| --- | --- | --- |
| PCDHA12 | 1 | -0.214 |
| PCDHA12 | 2 | -0.828 |
| PCDHA12 | 3 | -0.179 |
| DNAH5 | 1 | -1.01 |
| DNAH5 | 2 | 4.43 |
| DNAH5 | 3 | -0.423 |
| TRABD2B | 1 | -1.01 |
| TRABD2B | 2 | 0.128 |
| TRABD2B | 3 | 0.338 |
| FAM216B | 1 | -0.669 |
| FAM216B | 2 | -0.491 |
| FAM216B | 3 | -0.219 |
| GRHPR | 1 | 4.7 |
| GRHPR | 2 | 1.53 |
| GRHPR | 3 | -0.159 |
| RCN3 | 1 | 2.59 |
| RCN3 | 2 | 2.33 |
| RCN3 | 3 | -0.701 |
| NDUFA9 | 1 | -0.189 |
| NDUFA9 | 2 | 0.525 |
| NDUFA9 | 3 | 0.114 |
